Measured values reported in the supplement of paper PMC6078165.

System: Hs578T
Assay: relative JC-1 red fluorescence (viability) vs pre-drug, coculture with fibroblast (fraction); higher = more viable cancer cells
Description: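 JC-1 labelled TNBC cells cocultured 1:1 (1,500 cells each) with CellTrace Violet stained primary or stromal fibroblasts in 384-well plates in FluoroBrite medium, treated with one of 42 anticancer drugs at 0.1, 1, 10 or 100 uM. JC-1 red fluorescence (mitochondrial integrity in cancer cells only) was read by plate reader every 8 h for 72 h. Values are normalised to each well's pre-drug value. The stock of one drug was tenfold lower, so its dose labels may be too high.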

Nc1ccn([C@@H]2O[C@H](CO)[C@@H](O)C2(F)F)c(=O)n1 [Gemcitabine]
relative JC-1 red fluorescence
Details	8 h	16 h	24 h	32 h	40 h	48 h	56 h	64 h	72 h
10 µM	0.9015 ± 0.0064	0.775 ± 0.018	0.716 ± 0.017	0.681 ± 0.016	0.616 ± 0.011	0.582 ± 0.017	0.561 ± 0.0069	0.525 ± 0.0054	0.5204 ± 0.0052
100 µM	0.926 ± 0.023	0.801 ± 0.0091	0.737 ± 0.016	0.688 ± 0.033	0.628 ± 0.043	0.586 ± 0.056	0.573 ± 0.07	0.546 ± 0.076	0.542 ± 0.083

relative JC-1 red fluorescence
Details	8 h	16 h	24 h	32 h	40 h	48 h	56 h	64 h	72 h
10 µM, coculture fibroblast: C12385	0.829 ± 0.0083	0.691 ± 0.021	0.612 ± 0.033	0.54 ± 0.022	0.47 ± 0.026	0.422 ± 0.028	0.383 ± 0.022	0.353 ± 0.024	0.337 ± 0.028
10 µM, coculture fibroblast: H6013	0.925 ± 0.024	0.841 ± 0.03	0.8161 ± 0.0034	0.7936 ± 0.0062	0.757 ± 0.016	0.75 ± 0.025	0.733 ± 0.036	0.743 ± 0.045	0.721 ± 0.042
10 µM, coculture fibroblast: H6019	0.777 ± 0.011	0.687 ± 0.015	0.632 ± 0.05	0.54 ± 0.06	0.489 ± 0.06	0.457 ± 0.064	0.425 ± 0.069	0.409 ± 0.066	0.396 ± 0.073
10 µM, coculture fibroblast: H6076	0.91 ± 0.013	0.8409 ± 0.0039	0.771 ± 0.0092	0.745 ± 0.023	0.694 ± 0.029	0.679 ± 0.036	0.638 ± 0.044	0.623 ± 0.046	0.618 ± 0.049
10 µM, coculture fibroblast: H6231	0.917 ± 0.03	0.816 ± 0.051	0.749 ± 0.04	0.7 ± 0.034	0.627 ± 0.025	0.596 ± 0.015	0.543 ± 0.015	0.513 ± 0.0082	0.4882 ± 0.0015
10 µM, coculture fibroblast: HADF	0.9006 ± 0.0066	0.805 ± 0.015	0.747 ± 0.027	0.707 ± 0.047	0.667 ± 0.064	0.637 ± 0.082	0.6 ± 0.09	0.584 ± 0.094	0.555 ± 0.1
10 µM, coculture fibroblast: HCFa	0.876 ± 0.021	0.764 ± 0.056	0.691 ± 0.054	0.634 ± 0.053	0.564 ± 0.067	0.541 ± 0.073	0.512 ± 0.087	0.5 ± 0.096	0.476 ± 0.1
10 µM, coculture fibroblast: HCPF	0.937 ± 0.011	0.829 ± 0.0048	0.778 ± 0.019	0.745 ± 0.026	0.68 ± 0.026	0.655 ± 0.039	0.623 ± 0.044	0.574 ± 0.042	0.542 ± 0.05
10 µM, coculture fibroblast: HHSteC	0.909 ± 0.018	0.793 ± 0.019	0.749 ± 0.024	0.706 ± 0.026	0.658 ± 0.038	0.628 ± 0.041	0.603 ± 0.051	0.577 ± 0.042	0.551 ± 0.052
10 µM, coculture fibroblast: HMF	0.898 ± 0.043	0.796 ± 0.011	0.7247 ± 0.0035	0.6958 ± 0.0025	0.6319 ± 0.003	0.5982 ± 0.0018	0.5625 ± 0.0055	0.5323 ± 0.0033	0.5065 ± 0.0021
10 µM, coculture fibroblast: HPFa	0.9094 ± 0.0046	0.803 ± 0.013	0.722 ± 0.022	0.639 ± 0.05	0.577 ± 0.064	0.537 ± 0.064	0.489 ± 0.071	0.468 ± 0.068	0.425 ± 0.073
10 µM, coculture fibroblast: HUF	0.895 ± 0.018	0.746 ± 0.024	0.722 ± 0.0059	0.6274 ± 0.0039	0.562 ± 0.015	0.523 ± 0.021	0.491 ± 0.024	0.485 ± 0.037	0.472 ± 0.04
10 µM, coculture fibroblast: Hs27A	0.909 ± 0.0091	0.843 ± 0.0078	0.795 ± 0.015	0.7499 ± 0.006	0.7052 ± 0.003	0.6915 ± 0.0058	0.657 ± 0.018	0.648 ± 0.021	0.604 ± 0.022
10 µM, coculture fibroblast: Hs343T	0.9325 ± 0.003	0.802 ± 0.027	0.716 ± 0.022	0.677 ± 0.031	0.591 ± 0.031	0.549 ± 0.026	0.491 ± 0.024	0.458 ± 0.031	0.436 ± 0.034
10 µM, coculture fibroblast: WS1	0.8169 ± 0.0059	0.687 ± 0.01	0.598 ± 0.035	0.498 ± 0.028	0.43 ± 0.039	0.398 ± 0.051	0.357 ± 0.055	0.333 ± 0.056	0.317 ± 0.055
100 µM, coculture fibroblast: C12385	0.827 ± 0.018	0.718 ± 0.028	0.685 ± 0.021	0.599 ± 0.011	0.543 ± 0.022	0.51 ± 0.028	0.487 ± 0.033	0.472 ± 0.031	0.458 ± 0.033
100 µM, coculture fibroblast: H6013	0.892 ± 0.049	0.781 ± 0.099	0.739 ± 0.13	0.691 ± 0.16	0.625 ± 0.16	0.596 ± 0.17	0.557 ± 0.16	0.546 ± 0.16	0.53 ± 0.16
100 µM, coculture fibroblast: H6019	0.769 ± 0.017	0.652 ± 0.024	0.601 ± 0.016	0.503 ± 0.019	0.454 ± 0.027	0.427 ± 0.023	0.405 ± 0.017	0.401 ± 0.0092	0.392 ± 0.015
100 µM, coculture fibroblast: H6076	0.908 ± 0.034	0.811 ± 0.03	0.78 ± 0.0083	0.76 ± 0.032	0.71 ± 0.051	0.695 ± 0.044	0.679 ± 0.057	0.659 ± 0.057	0.658 ± 0.06
100 µM, coculture fibroblast: H6231	0.91 ± 0.015	0.835 ± 0.014	0.767 ± 0.036	0.727 ± 0.043	0.654 ± 0.045	0.622 ± 0.055	0.572 ± 0.06	0.543 ± 0.064	0.532 ± 0.065
100 µM, coculture fibroblast: HADF	0.9004 ± 0.008	0.812 ± 0.0098	0.742 ± 0.023	0.69 ± 0.026	0.626 ± 0.025	0.593 ± 0.028	0.552 ± 0.03	0.534 ± 0.022	0.497 ± 0.018
100 µM, coculture fibroblast: HCFa	0.884 ± 0.023	0.807 ± 0.011	0.8 ± 0.03	0.757 ± 0.051	0.71 ± 0.054	0.696 ± 0.059	0.674 ± 0.058	0.674 ± 0.06	0.647 ± 0.061
100 µM, coculture fibroblast: HCPF	0.926 ± 0.015	0.842 ± 0.018	0.788 ± 0.023	0.762 ± 0.018	0.689 ± 0.018	0.66 ± 0.014	0.63 ± 0.0068	0.57855 ± 0.00013	0.5509 ± 0.0022
100 µM, coculture fibroblast: HHSteC	0.917 ± 0.039	0.783 ± 0.053	0.707 ± 0.078	0.644 ± 0.084	0.572 ± 0.09	0.527 ± 0.095	0.497 ± 0.082	0.47 ± 0.088	0.43 ± 0.086
100 µM, coculture fibroblast: HMF	0.9154 ± 0.0073	0.82 ± 0.012	0.774 ± 0.016	0.754 ± 0.02	0.692 ± 0.02	0.665 ± 0.023	0.622 ± 0.021	0.593 ± 0.028	0.563 ± 0.029
100 µM, coculture fibroblast: HPFa	0.948 ± 0.011	0.8611 ± 0.0057	0.7898 ± 0.0073	0.739 ± 0.0083	0.693 ± 0.0086	0.662 ± 0.012	0.625 ± 0.011	0.603 ± 0.015	0.574 ± 0.015
100 µM, coculture fibroblast: HUF	0.853 ± 0.026	0.735 ± 0.034	0.685 ± 0.038	0.575 ± 0.037	0.517 ± 0.042	0.477 ± 0.043	0.444 ± 0.051	0.427 ± 0.057	0.424 ± 0.067
100 µM, coculture fibroblast: Hs27A	0.882 ± 0.02	0.83 ± 0.043	0.753 ± 0.049	0.704 ± 0.075	0.634 ± 0.075	0.609 ± 0.073	0.567 ± 0.072	0.548 ± 0.068	0.502 ± 0.064
100 µM, coculture fibroblast: Hs343T	0.925 ± 0.035	0.798 ± 0.047	0.768 ± 0.049	0.749 ± 0.047	0.685 ± 0.045	0.656 ± 0.06	0.612 ± 0.043	0.581 ± 0.046	0.567 ± 0.043
100 µM, coculture fibroblast: WS1	0.814 ± 0.017	0.706 ± 0.025	0.641 ± 0.016	0.54 ± 0.011	0.475 ± 0.0084	0.45463 ± 4.7e-05	0.4219 ± 0.0018	0.4133 ± 0.00043	0.403 ± 0.0043

± gives the standard deviation of the averaged measurements. The reference is the same well before dosing, and untreated signal decays as well.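 Fibroblast labels denote human fibroblasts, mainly primary ones from uterus (C12385, HUF), lung (H6013), bone (Hs27A), adrenal (HADF) and skin (WS1), plus mammary HMF and breast cancer-associated Hs343T. Cancer cells are basal-like or mesenchymal-like triple-negative breast cancer lines. A hit is a response shift exceeding 3x replicate standard deviation. The tissue of the other fibroblasts is not given here.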
